# Measurements published in the supplement of paper PMC8728848.
# The other results are listed elsewhere or left out.
# B1: XTP3-B-MRH2 (Homo sapiens), Q96DZ1 (protein)
# chain: EFLSGSYCFRGGVGWWKYEFCYGKHVHQYHEDKDSGKTSVVVGTWNQEEHIEWAKKNTARAYHLQDDGTQTVRMVSHFYGNGDICDITDKPRQVTVKLKCKESDSPHAVTVYMLEPHSCQYILGVESPVICKILDTA
# What was measured:
# Test in all cases: glycan array binding signal (z-score within array); higher = stronger binding
# Conditions in all cases: glycan notation: IUPAC condensed, linker removed
# [1] = molecular target: Neu5Ac(a2-6)Gal(b1-4)GlcNAc(b1-2)Man(a1-3)[Man(a1-6)]Man(b1-4)GlcNAc(b1-4)GlcNAc
# Method in brief: (§1)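 Glycan array data came from 3228 arrays in the Consortium for Functional Glycomics database, and only arrays with an available protein sequence were kept. Glycan names were put into IUPAC-condensed notation, and columns mapping to the same glycan were averaged. The binding signal is a within-array Z-score, averaged across arrays of one protein sequence run at different concentrations or buffers and across linkers. A negative Z-score can be read as non-binding.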
# [2] = molecular target: Neu5Ac(a2-6)Gal(b1-4)GlcNAc(b1-2)Man(a1-3)[Neu5Ac(a2-3)Gal(b1-4)GlcNAc(b1-2)Man(a1-6)]Man(b1-4)GlcNAc(b1-4)GlcNAc
# Method in brief: as §1
# [3] = molecular target: Neu5Ac(a2-6)Gal(b1-4)GlcNAc(b1-2)Man(a1-3)[Neu5Ac(a2-6)Gal(b1-4)GlcNAc(b1-2)Man(a1-6)]Man(b1-4)GlcNAc(b1-4)GlcNAc
# Method in brief: as §1
# [4] = molecular target: Neu5Ac(a2-6)Gal(b1-4)GlcNAc(b1-2)Man(a1-3)[Neu5Ac(a2-6)Gal(b1-4)GlcNAc(b1-2)Man(a1-6)]Man(b1-4)GlcNAc(b1-4)[Fuc(a1-6)]GlcNAc
# Method in brief: as §1
# [5] = molecular target: Neu5Ac(a2-6)Gal(b1-4)GlcNAc(b1-2)Man(a1-6)Man(b1-4)GlcNAc(b1-4)GlcNAc
# Method in brief: as §1
# [6] = molecular target: Neu5Ac(a2-6)Gal(b1-4)GlcNAc(b1-2)Man(a1-6)[Gal(b1-4)GlcNAc(b1-2)Man(a1-3)]Man(b1-4)GlcNAc(b1-4)GlcNAc
# Method in brief: as §1
# [7] = molecular target: Neu5Ac(a2-6)Gal(b1-4)GlcNAc(b1-2)Man(a1-6)[GlcNAc(b1-2)Man(a1-3)]Man(b1-4)GlcNAc(b1-4)GlcNAc
# Method in brief: as §1
# [8] = molecular target: Neu5Ac(a2-6)Gal(b1-4)GlcNAc(b1-2)Man(a1-6)[Man(a1-3)]Man(b1-4)GlcNAc(b1-4)GlcNAc
# Method in brief: as §1
# [9] = molecular target: Neu5Ac(a2-6)Gal(b1-4)GlcNAc(b1-2)[Neu5Ac(a2-6)Gal(b1-4)GlcNAc(b1-4)]Man(a1-3)[GlcNAc(b1-4)][Neu5Ac(a2-6)Gal(b1-4)GlcNAc(b1-2)[Neu5Ac(a2-6)Gal(b1-4)GlcNAc(b1-6)]Man(a1-6)]Man(b1-4)GlcNAc(b1-4)GlcNAc
# Method in brief: as §1
# [10] = molecular target: Neu5Ac(a2-6)Gal(b1-4)GlcNAc(b1-2)[Neu5Ac(a2-6)Gal(b1-4)GlcNAc(b1-4)]Man(a1-3)[GlcNAc(b1-4)][Neu5Ac(a2-6)Gal(b1-4)GlcNAc(b1-4)Man(a1-6)]Man(b1-4)GlcNAc(b1-4)GlcNAc
# Method in brief: as §1
# [11] = molecular target: Neu5Ac(a2-6)Gal(b1-4)GlcNAc(b1-2)[Neu5Ac(a2-6)Gal(b1-4)GlcNAc(b1-6)]Man(a1-6)[Neu5Ac(a2-6)Gal(b1-4)GlcNAc(b1-2)Man(a1-3)][GlcNAc(b1-4)]Man(b1-4)GlcNAc(b1-4)GlcNAc
# Method in brief: as §1
# [12] = molecular target: Neu5Ac(a2-6)Gal(b1-4)GlcNAc(b1-3)Gal(b1-3)GlcNAc
# Method in brief: as §1
# [13] = molecular target: Neu5Ac(a2-6)Gal(b1-4)GlcNAc(b1-3)Gal(b1-4)GlcNAc
# Method in brief: as §1
# [14] = molecular target: Neu5Ac(a2-6)Gal(b1-4)GlcNAc(b1-3)Gal(b1-4)GlcNAc(b1-2)Man(a1-3)[Neu5Ac(a2-6)Gal(b1-4)GlcNAc(b1-3)Gal(b1-4)GlcNAc(b1-2)Man(a1-6)]GalNAc
# Method in brief: as §1
# [15] = molecular target: Neu5Ac(a2-6)Gal(b1-4)GlcNAc(b1-3)Gal(b1-4)GlcNAc(b1-3)Gal(b1-4)GlcNAc
# Method in brief: as §1
# [16] = molecular target: Neu5Ac(a2-6)Gal(b1-4)GlcNAc(b1-3)Gal(b1-4)GlcNAc(b1-3)Gal(b1-4)GlcNAc(b1-2)Man(a1-3)[Neu5Ac(a2-6)Gal(b1-4)GlcNAc(b1-3)Gal(b1-4)GlcNAc(b1-3)Gal(b1-4)GlcNAc(b1-2)Man(a1-6)]GalNAc
# Method in brief: as §1
# [17] = molecular target: Neu5Ac(a2-6)Gal(b1-4)GlcNAc(b1-3)Gal(b1-4)GlcNAc(b1-3)GalNAc
# Method in brief: as §1
# [18] = molecular target: Neu5Ac(a2-6)Gal(b1-4)GlcNAc(b1-3)Gal(b1-4)GlcNAc(b1-3)[Neu5Ac(a2-6)Gal(b1-4)GlcNAc(b1-3)Gal(b1-4)GlcNAc(b1-6)]GalNAc
# Method in brief: as §1
# [19] = molecular target: Neu5Ac(a2-6)Gal(b1-4)GlcNAc(b1-3)Gal(b1-4)GlcNAc(b1-6)[Gal(b1-3)]GalNAc
# Method in brief: as §1
# [20] = molecular target: Neu5Ac(a2-6)Gal(b1-4)GlcNAc(b1-3)Gal(b1-4)[Fuc(a1-3)]GlcNAc(b1-3)Gal(b1-4)[Fuc(a1-3)]GlcNAc
# Method in brief: as §1
# [21] = molecular target: Neu5Ac(a2-6)Gal(b1-4)GlcNAc(b1-3)GalNAc
# Method in brief: as §1
# [22] = molecular target: Neu5Ac(a2-6)Gal(b1-4)GlcNAc(b1-3)[Neu5Ac(a2-6)Gal(b1-4)GlcNAc(b1-6)]GalNAc
# Method in brief: as §1
# [23] = molecular target: Neu5Ac(a2-6)Gal(b1-4)GlcNAc(b1-6)GalNAc
# Method in brief: as §1
# [24] = molecular target: Neu5Ac(a2-6)Gal(b1-4)GlcNAc(b1-6)[Gal(b1-3)GlcNAc(b1-3)]Gal(b1-4)Glc
# Method in brief: as §1
# [25] = molecular target: Neu5Ac(a2-6)Gal(b1-4)GlcNAc(b1-6)[Gal(b1-3)]GalNAc
# Method in brief: as §1
# [26] = molecular target: Neu5Ac(a2-6)Gal(b1-4)GlcNAc6S
# Method in brief: as §1
# [27] = molecular target: Neu5Ac(a2-6)GalNAc
# Method in brief: as §1
# [28] = molecular target: Neu5Ac(a2-6)GalNAc(b1-4)GlcNAc
# Method in brief: as §1
# [29] = molecular target: Neu5Ac(a2-6)GalNAc(b1-4)GlcNAc6S
# Method in brief: as §1
# [30] = molecular target: Neu5Ac(a2-6)GlcNAc(b1-4)GlcNAc
# Method in brief: as §1
# [31] = molecular target: Neu5Ac(a2-6)GlcNAc(b1-4)GlcNAc(b1-4)GlcNAc
# Method in brief: as §1
binder,measurement,setting,value
B1,glycan array binding signal (z-score),[1],-0.089
same,glycan array binding signal (z-score),[2],-0.101
same,glycan array binding signal (z-score),[3],-0.079
same,glycan array binding signal (z-score),[4],0.209
same,glycan array binding signal (z-score),[5],1.85
same,glycan array binding signal (z-score),[6],-0.687
same,glycan array binding signal (z-score),[7],-0.312
same,glycan array binding signal (z-score),[8],0.144
same,glycan array binding signal (z-score),[9],0.202
same,glycan array binding signal (z-score),[10],-0.488
same,glycan array binding signal (z-score),[11],0.579
same,glycan array binding signal (z-score),[12],-0.807
same,glycan array binding signal (z-score),[13],0.021
same,glycan array binding signal (z-score),[14],-0.17
same,glycan array binding signal (z-score),[15],-0.857
same,glycan array binding signal (z-score),[16],0.077
same,glycan array binding signal (z-score),[17],-0.693
same,glycan array binding signal (z-score),[18],-0.173
same,glycan array binding signal (z-score),[19],-1.16
same,glycan array binding signal (z-score),[20],-0.622
same,glycan array binding signal (z-score),[21],0.124
same,glycan array binding signal (z-score),[22],-0.205
same,glycan array binding signal (z-score),[23],0.675
same,glycan array binding signal (z-score),[24],0.08
same,glycan array binding signal (z-score),[25],0.541
same,glycan array binding signal (z-score),[26],1.55
same,glycan array binding signal (z-score),[27],1.2
same,glycan array binding signal (z-score),[28],0.042
same,glycan array binding signal (z-score),[29],-0.187
same,glycan array binding signal (z-score),[30],0.82
same,glycan array binding signal (z-score),[31],0.385

# Already shown: an excerpt of the list.
binder,measurement,setting,value
B1,glycan array binding signal (z-score),[19],-1.16
same,glycan array binding signal (z-score),[20],-0.622
same,glycan array binding signal (z-score),[21],0.124
same,glycan array binding signal (z-score),[22],-0.205
same,glycan array binding signal (z-score),[23],0.675
same,glycan array binding signal (z-score),[24],0.08
same,glycan array binding signal (z-score),[25],0.541
